No constants are given. Whether binding was seen depends on the method and setting. Some results given as binding are weak or reduced against the parent protein; the word gives no strength.

Protein sequences, listed by entry. Tags and fused reporters are not part of them.
UniProt O46414: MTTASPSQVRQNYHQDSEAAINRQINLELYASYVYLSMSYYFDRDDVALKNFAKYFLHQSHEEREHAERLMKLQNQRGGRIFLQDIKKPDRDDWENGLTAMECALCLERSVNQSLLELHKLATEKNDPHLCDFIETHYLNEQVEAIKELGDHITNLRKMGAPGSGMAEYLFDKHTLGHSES

In this assay the target is T1, cow brain ferritin L subunit (cow (endogenous in brain)) (UniProt O46415).
T1 sequence: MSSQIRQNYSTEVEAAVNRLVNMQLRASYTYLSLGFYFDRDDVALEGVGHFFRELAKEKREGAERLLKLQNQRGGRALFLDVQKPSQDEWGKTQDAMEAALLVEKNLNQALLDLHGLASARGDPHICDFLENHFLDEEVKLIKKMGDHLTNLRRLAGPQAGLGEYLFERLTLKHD
Briefly: native gel or EMSA; 7% native PAGE, Coomassie stained, of purified ferritin whose H and L subunits assembled in the cells (E. coli co-expression or animal organ); subunits shown by 12% SDS-PAGE, SDS-CGE and Western blot.

In the case of “cow brain ferritin H subunit (from UniProt O46414 1-181)”, the binding entry is recorded as “binds”.

For the origin of these results see publication PMC10646083.
